{"sequences": {"note": "Chains of the proteins cited; added tags and fusions are not shown. Residues count along the entry.", "UniProt O00206, residues 24-839": "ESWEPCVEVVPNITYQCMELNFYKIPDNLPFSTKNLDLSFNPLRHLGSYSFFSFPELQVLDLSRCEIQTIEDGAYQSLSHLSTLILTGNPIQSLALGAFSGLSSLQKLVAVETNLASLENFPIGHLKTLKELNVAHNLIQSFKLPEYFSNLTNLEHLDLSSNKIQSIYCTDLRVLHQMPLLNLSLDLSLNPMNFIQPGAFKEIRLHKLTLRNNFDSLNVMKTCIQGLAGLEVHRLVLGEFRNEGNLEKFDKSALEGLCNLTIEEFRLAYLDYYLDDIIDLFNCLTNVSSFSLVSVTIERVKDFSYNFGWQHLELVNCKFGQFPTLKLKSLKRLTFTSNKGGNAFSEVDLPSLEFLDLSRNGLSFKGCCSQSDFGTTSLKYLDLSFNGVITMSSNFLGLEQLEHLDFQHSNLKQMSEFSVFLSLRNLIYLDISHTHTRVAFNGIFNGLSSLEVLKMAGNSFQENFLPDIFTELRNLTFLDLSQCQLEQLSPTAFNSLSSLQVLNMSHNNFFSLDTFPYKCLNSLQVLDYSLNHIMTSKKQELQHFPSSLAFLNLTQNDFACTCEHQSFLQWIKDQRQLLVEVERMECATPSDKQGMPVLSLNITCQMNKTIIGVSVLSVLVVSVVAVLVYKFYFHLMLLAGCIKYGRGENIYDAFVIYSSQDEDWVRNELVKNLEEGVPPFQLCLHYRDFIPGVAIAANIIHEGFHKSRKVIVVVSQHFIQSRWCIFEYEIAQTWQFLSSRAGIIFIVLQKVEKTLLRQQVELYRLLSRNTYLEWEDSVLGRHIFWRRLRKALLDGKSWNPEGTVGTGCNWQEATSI", "UniProt P08670": "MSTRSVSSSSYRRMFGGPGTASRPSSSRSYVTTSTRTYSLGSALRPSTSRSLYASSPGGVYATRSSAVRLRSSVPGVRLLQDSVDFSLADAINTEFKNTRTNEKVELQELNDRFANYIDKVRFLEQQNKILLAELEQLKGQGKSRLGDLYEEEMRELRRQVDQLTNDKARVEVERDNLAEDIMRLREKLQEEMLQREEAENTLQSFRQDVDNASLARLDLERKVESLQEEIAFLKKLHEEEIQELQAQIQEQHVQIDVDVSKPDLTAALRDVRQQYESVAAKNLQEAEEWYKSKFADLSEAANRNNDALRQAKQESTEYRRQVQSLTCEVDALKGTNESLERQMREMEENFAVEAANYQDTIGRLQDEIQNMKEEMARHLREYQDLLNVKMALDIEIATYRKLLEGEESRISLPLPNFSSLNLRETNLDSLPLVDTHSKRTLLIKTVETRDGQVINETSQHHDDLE"}, "source": "paper PMC9506174", "target": "HA-tagged human Toll-like receptor 4 (human) (UniProt O00206)", "experiment": "affinity purification with mass spectrometry; anti-HA magnetic beads on lysates of HA-TLR4-HEK293 cells (control, 1 µg/mL LPS 1 h, 10 µM simvastatin 24 h, statin then LPS; with or without ETD cross-linker), overnight at 4 °C; trypsin digestion, nano-LC-MS/MS, spectral counting", "note": "These are yes or no findings as the source states them, for the method shown. Binding seen in cells or lysates may run through a third protein. A yes stands for co-enrichment or nearness to the bait. Other partners may have been found.", "data": [{"substance": "vimentin (from UniProt P08670 1-466)", "values": [{"measurement": "binding", "value": "binds"}]}]}
